No constants are given. Whether binding was seen depends on the method and setting. For part of these data: Binding seen in cells or lysates may run through a third protein. Some entries that bind do so weakly or less than the wild type.
What was measured:
[1] = target: T1, SNAP23 (human (endogenous in U2OS)) (UniProt O00161); experiment: cross-linking + SEC; protein correlation profiling: U2OS cells crosslinked in vivo with 6% formaldehyde (30 min, room temperature), lysed in 4% SDS with TCEP, denaturing SEC (BioBasic SEC1000, 0.2% SDS, 100 mM NaCl, 10 mM NaPO4 pH 6.0, 30 °C), 48 fractions, crosslinks reversed by heat, LC-MS/MS, LFQ elution profiles, n = 3
T1 sequence: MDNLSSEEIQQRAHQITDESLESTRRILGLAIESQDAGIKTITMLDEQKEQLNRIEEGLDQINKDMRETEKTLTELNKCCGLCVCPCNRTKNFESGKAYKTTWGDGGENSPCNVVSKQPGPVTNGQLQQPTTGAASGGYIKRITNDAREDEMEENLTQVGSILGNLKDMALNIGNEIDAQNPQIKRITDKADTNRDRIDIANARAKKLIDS

The chains behind the UniProt entries cited, without tags or fusion partners.
UniProt P63027: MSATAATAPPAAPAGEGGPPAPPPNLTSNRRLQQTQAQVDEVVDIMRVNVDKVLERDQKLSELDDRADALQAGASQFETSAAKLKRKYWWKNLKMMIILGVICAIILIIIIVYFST
UniProt Q9NQW7: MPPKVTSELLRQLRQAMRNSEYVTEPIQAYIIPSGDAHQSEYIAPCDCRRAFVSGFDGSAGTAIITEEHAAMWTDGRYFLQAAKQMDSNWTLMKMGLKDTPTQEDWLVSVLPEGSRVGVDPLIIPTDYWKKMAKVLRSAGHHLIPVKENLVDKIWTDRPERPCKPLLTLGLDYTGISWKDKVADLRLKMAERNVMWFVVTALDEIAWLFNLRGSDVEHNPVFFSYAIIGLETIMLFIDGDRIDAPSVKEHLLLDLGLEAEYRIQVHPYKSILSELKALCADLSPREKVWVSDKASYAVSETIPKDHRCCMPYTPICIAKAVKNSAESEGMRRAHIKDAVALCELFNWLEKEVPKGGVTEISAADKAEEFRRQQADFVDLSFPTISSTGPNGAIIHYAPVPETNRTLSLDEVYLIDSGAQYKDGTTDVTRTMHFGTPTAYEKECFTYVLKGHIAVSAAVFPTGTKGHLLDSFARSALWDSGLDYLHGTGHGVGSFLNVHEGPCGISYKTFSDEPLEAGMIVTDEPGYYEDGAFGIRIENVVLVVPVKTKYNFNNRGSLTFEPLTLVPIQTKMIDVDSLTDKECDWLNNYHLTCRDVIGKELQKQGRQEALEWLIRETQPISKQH

[2] = target: T2, threonine-tRNA ligase (TARS) (human (endogenous in U2OS)) (UniProt P26639); experiment: SEC; protein correlation profiling of native (not crosslinked) U2OS cell extract, 40 fractions, LC-MS/MS; RAW files of the authors' previous native SEC analysis (ref. 6) analysed again here together with the crosslinked data set
T2 sequence: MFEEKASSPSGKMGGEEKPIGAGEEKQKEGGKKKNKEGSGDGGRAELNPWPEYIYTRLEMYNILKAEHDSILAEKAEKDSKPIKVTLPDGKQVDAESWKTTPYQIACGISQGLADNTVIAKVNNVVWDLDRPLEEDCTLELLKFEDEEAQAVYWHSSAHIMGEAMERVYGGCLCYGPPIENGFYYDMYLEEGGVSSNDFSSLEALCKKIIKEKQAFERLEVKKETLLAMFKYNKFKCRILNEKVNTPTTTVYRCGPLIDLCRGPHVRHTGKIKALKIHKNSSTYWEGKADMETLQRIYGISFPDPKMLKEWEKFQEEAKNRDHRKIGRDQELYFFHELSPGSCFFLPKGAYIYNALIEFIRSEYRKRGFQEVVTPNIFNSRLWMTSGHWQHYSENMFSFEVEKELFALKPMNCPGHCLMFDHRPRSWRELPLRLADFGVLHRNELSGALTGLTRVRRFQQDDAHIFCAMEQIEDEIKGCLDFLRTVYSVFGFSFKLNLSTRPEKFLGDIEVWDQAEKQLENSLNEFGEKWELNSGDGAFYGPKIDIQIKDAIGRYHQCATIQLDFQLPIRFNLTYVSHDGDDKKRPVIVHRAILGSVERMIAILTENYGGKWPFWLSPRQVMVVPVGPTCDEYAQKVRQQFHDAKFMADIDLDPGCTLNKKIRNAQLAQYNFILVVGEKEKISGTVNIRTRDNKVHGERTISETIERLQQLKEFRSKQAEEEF

[3] = target: T2, threonine-tRNA ligase (TARS) (human (endogenous in U2OS)); experiment: cross-linking + SEC; protein correlation profiling: U2OS cells crosslinked in vivo with 6% formaldehyde (30 min, room temperature), lysed in 4% SDS with TCEP, denaturing SEC (BioBasic SEC1000, 0.2% SDS, 100 mM NaCl, 10 mM NaPO4 pH 6.0, 30 °C), 48 fractions, crosslinks reversed by heat, LC-MS/MS, LFQ elution profiles, n = 3

binding [1] | binding [3] | Substance | binding [2]
no binding | – | VAMP2 (from UniProt P63027 1-116) | –
– | binds | Xaa-Pro aminopeptidase 1 (XPNPEP1) (from UniProt Q9NQW7 1-623) (enzyme) | no binding (condition: native extract, not crosslinked)

From publication PMC4937518
